# According to publication doi:10.1101/2020.11.17.385245:
# By UniProt entry, the sequences of proteins in these tests, tags left out. Where a name states a change or a piece, a line headed by the entry shows the natural chain unless it says otherwise. Residues count along the entry.
# UniProt A4D1B5, whole entry: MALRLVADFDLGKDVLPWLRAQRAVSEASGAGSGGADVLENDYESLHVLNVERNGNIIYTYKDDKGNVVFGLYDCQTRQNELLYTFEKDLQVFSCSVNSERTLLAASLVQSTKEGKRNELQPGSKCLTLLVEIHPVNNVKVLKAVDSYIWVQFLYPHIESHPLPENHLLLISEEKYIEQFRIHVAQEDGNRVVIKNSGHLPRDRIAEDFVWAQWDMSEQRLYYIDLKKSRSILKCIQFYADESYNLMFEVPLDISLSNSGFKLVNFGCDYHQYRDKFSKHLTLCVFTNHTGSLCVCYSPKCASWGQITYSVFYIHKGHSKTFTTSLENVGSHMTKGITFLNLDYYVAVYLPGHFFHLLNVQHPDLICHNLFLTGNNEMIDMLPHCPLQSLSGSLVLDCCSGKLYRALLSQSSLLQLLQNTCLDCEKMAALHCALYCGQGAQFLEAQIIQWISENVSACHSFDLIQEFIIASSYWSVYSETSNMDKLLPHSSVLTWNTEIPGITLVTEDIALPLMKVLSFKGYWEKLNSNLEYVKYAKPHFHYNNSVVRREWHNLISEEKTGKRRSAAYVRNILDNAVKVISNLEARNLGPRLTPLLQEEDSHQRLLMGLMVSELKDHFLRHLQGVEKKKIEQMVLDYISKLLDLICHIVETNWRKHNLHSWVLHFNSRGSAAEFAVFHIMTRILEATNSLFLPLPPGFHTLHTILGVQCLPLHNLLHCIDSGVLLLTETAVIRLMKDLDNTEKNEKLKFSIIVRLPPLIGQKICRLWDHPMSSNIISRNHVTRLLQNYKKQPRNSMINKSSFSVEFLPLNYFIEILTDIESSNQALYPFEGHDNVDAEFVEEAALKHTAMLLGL
# UniProt A4D1B5, 733-854: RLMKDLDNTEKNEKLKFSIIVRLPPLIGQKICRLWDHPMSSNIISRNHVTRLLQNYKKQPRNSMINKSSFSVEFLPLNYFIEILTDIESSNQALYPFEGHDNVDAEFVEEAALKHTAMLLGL
# Results are given in words; binding and its absence hold for the method and conditions named. In cells and extracts the contact can be indirect. Some entries that bind do so weakly or less than the wild type. For some of these results: Where a sequence is shown, tags or fusion partners need not be part of it.
# Key:
# Assay in all cases: co-IP
# [1] = biological target: T1, Myc-Flag tagged Phb (prohibitin) (UniProt P35232)
# T1 sequence: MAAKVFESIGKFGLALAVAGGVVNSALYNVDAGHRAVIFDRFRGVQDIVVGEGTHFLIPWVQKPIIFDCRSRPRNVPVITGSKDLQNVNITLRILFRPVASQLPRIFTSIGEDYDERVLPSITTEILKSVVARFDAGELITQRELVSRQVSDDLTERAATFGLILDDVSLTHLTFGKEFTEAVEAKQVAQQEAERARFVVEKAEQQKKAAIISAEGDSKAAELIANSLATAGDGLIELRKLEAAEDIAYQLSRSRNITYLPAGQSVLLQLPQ
# [2] = biological target: T2, endogenous Fe65 (A549 cells) (human (endogenous in A549)) (UniProt O00213)
# T2 sequence: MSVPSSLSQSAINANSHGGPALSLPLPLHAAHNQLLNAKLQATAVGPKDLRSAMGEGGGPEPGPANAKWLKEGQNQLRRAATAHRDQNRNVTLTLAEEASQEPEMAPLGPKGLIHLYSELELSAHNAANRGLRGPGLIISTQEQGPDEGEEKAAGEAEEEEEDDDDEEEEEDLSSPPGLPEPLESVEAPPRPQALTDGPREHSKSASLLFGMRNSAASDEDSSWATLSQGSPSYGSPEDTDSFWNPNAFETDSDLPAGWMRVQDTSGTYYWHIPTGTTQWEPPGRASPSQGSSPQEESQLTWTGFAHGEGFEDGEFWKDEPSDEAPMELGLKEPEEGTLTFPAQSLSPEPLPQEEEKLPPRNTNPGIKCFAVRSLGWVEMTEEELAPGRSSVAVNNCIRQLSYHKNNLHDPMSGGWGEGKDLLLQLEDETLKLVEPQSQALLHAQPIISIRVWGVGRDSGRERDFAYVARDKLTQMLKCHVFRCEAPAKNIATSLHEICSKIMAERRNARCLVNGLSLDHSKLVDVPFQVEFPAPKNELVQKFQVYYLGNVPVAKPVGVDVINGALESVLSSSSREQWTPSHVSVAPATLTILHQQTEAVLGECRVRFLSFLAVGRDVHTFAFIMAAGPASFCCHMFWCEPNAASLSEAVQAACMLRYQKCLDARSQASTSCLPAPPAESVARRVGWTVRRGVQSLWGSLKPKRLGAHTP
# [3] = biological target: T3, full length Fe65 (Flag tagged) (UniProt O00213)
# T3 sequence: T2 sequence
Substance,binding [3],other results
"GSAP (HA-tagged), co-IP with PHB (Fig. S1D) (from UniProt A4D1B5 1-854)",–,binding [1]: binds
endogenous GSAP (from UniProt A4D1B5 1-854),–,binding [2]: binds
"full length GSAP (HA tagged), expressed in HEK293T cells (from UniProt A4D1B5 1-854)",binds,–
human GSAP-16k with HA tag (GSAP carboxyl-terminal 16K domain) (from UniProt A4D1B5 733-854) (domain or fragment),binds,–
